Test results taken from patent US20110152500A1.
No constants are given. Whether binding was seen depends on the method and setting. One block for each binder: values may come before it.

Legend:
CD7 = experiment: phage ELISA, wells coated with 5 µg/ml protein, anti-M13-HRP, absorbance at 450 nm
TNFα [1] = experiment: as above
Avidin [2] = experiment: phage ELISA, wells coated with 5 µg/ml protein, anti-M13-HRP, absorbance at 450 nm; binder taken as the nAchR peptide 1 phage
myoglobin [3] = experiment: as above
lysozyme [4] = experiment: phage ELISA, wells coated with 5 µg/ml protein, anti-M13-HRP, absorbance at 450 nm; binder taken as the VCAM1 peptide 1 phage
TNFα [5] = experiment: as above
myoglobin [6] = experiment: as above
Avidin [7] = experiment: phage ELISA, wells coated with 5 µg/ml protein, anti-M13-HRP, absorbance at 450 nm
lysozyme [8] = experiment: as above
myoglobin [9] = experiment: as above
Visfatin = experiment: as above

B4: Peptide 1 specific to VEGF (bipodal-peptide binder) (peptide)
peptide: HANFFQGSWTWENGKWTWKGWKYNQS
binding (TNFα [1]): no binding | binding (Avidin [7]): no binding

B5: Peptide 2 specific to fibronectin ED-B (bipodal-peptide binder, tryptophan zipper) (peptide)
peptide: HCSSAVGSWTWENGKWTWKGIIRLEQ
binding (lysozyme [8]): no binding | binding (TNFα [1]): no binding | binding (myoglobin [9]): no binding | binding (Visfatin): no binding

B6: Peptide 1 specific to HSA (bipodal-peptide binder) (peptide)
peptide: AASPYKGSWTWENGKWTWKGGWRMKM
binding (TNFα [1]): no binding | binding (Visfatin): no binding

Next, values leading:

binding (CD7): no binding | binding (TNFα [1]): no binding
B1: Peptide 1 specific to MyD88 (bipodal-peptide binder) (peptide)
peptide: HSHAFYGSWTWENGKWTWKGNPGWWT

binding (Avidin [2]): no binding | binding (myoglobin [3]): no binding
B2: Peptide 1 specific to nAchR (bipodal-peptide binder) (peptide)
peptide: EASFWLGSWTWENGKWTWKGKGTLNR

binding (lysozyme [4]): no binding | binding (TNFα [5]): no binding | binding (myoglobin [6]): no binding
B3: Peptide 1 specific to VCAM1 (bipodal-peptide binder) (peptide)
peptide: QARDCTGSWTWENGKWTWKGPSICPI
